The campaign covered roughly 220,000 compounds. About 2,400 (1.1%) were called active. The inconclusive results got no clear call from the source; some entries with a clear call stand among them for comparison. The call rests on the fitted dose curve; in most records, active means well fitted inhibition curve with a large enough effect; inconclusive means small, poorly fitted or top-dose-only effect, or effect the other way; inactive means no such curve, though single readings can be large or run the other way. Potencies of inconclusive entries are doubtful fits and often do not repeat.
Test: qHTS Multiplex Assay to Identify Dual Action Probes in a Cell Model of Huntington: Aggregate Formation (GFP); further: nearly all actives have a fitted effect of over 60% in size
Conditions: PC12 HttQ103-GFP aggregates, Acumen cytometry, 40 h; activity change, negative = inhibition: at 46.1 µM (top of the series) unless noted
Method in brief: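 Inducible Q103 Huntingtin exon 1–GFP PC12 line, 1500 cells/well in phenol red free DMEM with 5% equine and 5% calf serum. Tebufenozide 100 nM induced expression; compounds titrated; aggregates quantified by cytometry.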
On the % scale 0 is the no-effect control and ±100 the full control effect; potency means the concentration at half of the fitted maximal effect.

| Structure (SMILES) | activity change, negative = inhibition | Potency |
| --- | --- | --- |
| O=C(CCS(=O)(=O)c1cccc2nonc12)N1CCCc2ccccc21 | inactive: 2.81% | – |
| COc1ccc2cc(/C=C3\SC(=S)NC3=O)c(N3CCOCC3)nc2c1 | – | inconclusive: 35.5 µM [inhibitor, single point] |
| COc1ccccc1NC(=O)N1CCN(c2cc(-c3ccccc3)nc3ncnn23)CC1 | – | active: 10 µM |
| CCn1cc(C2=NOC(C(=O)Nc3ccccc3C(=O)OC)C2)c(C)n1 (stereo not given) | inactive: -32.1% | – |
| COc1ccccc1N(C)S(=O)(=O)c1ccc(C(=O)OCC(=O)Nc2ccccc2F)cc1 | inactive: 15.4% | – |
| COc1ccc(-c2nc(N3CCCC3)[nH]c(=O)c2C#N)cc1 | – | inconclusive: 7.08 µM [inhibitor, partial curve] |
| CCOc1cc(NC(=S)NCCCN2CCOCC2)c(OCC)cc1NC(=O)c1ccc(OC)cc1 | inactive: -7.32% [at 9.22 µM] | – |
| NS(=O)(=O)c1ccc(NC(=O)c2ccc(CNS(=O)(=O)c3cc(C(F)(F)F)ccc3Cl)cc2)cc1 | inactive: -17.4% [at 9.22 µM] | – |
| O=C(NCCCNc1ccc(C(F)(F)F)cc1[N+](=O)[O-])c1ccc(F)cc1 | – | inconclusive: 2 µM [inhibitor, full curve] |
| CC12CCC(C(=O)Nc3ccccc3-n3cccc3)(CC1=O)C2(C)C (stereo not given) | – | inconclusive: 0.562 µM [activator, full curve] |
| Fc1ccccc1-n1cc(-c2ccccc2)[nH]c1=S | inactive: 3.97% | – |
| CCNC(=O)N1c2ccc(OCC)cc2C(C)=CC1(C)C | – | inconclusive: 1 µM [activator, single point] |
| COc1cc(/C=C/C(=O)c2c(O)cc(C)oc2=O)cc(OC)c1O | – | inconclusive: 10 µM [activator, partial curve] |
| Cc1[nH]c2ccccc2c1SCc1nnc(SCc2ccc(Cl)cc2)n1C | – | inconclusive: 3.16 µM [activator, single point] |
| COc1cccc(/C=C/C(=O)OCC(=O)NCCc2ccccc2)c1 | – | inconclusive: 2.24 µM [activator, full curve, poor fit] |
| O=C(O)CCn1cc(/C=C/C(=O)c2ccc(Cl)cc2)c(-c2ccc(Br)cc2)n1 | – | inconclusive: 11.2 µM [activator, partial curve, poor fit] |
| COc1ccc2nc(SCC(=O)N3CCNC3=O)[nH]c2c1 | inactive: -4.29% | – |
| COc1cc(CNn2cn[nH]c2=S)cc(Cl)c1OCc1ccc(F)cc1 | – | inconclusive: 6.31 µM [activator, single point] |
| O=C(Cn1nc(C(F)(F)F)c2c1CCCC2)Nc1ccc2c(c1)OCO2 | – | inconclusive: 5.62 µM [inhibitor, single point] |
| CCc1c(C#N)c(SCc2c(C)noc2C)nc2c1C(=O)CC(C)(C)C2 | – | inconclusive: 35.5 µM [inhibitor, single point] |
| O=C(CSc1ncccn1)NCc1ccc(F)cc1 | inactive: 13.7% | – |
| COc1cccc(N2CCN(CC(=O)Nc3ccc(SC(F)F)cc3)CC2)c1 | inactive: -15.7% | – |
| CC(C)(C)c1cc(NC(=O)Nc2ccc(Br)cc2Cl)no1 | – | inconclusive: 7.08 µM [inhibitor, partial curve] |

Sorted by heavy-atom count (rising): part of the list above.

| Structure (SMILES) | activity change, negative = inhibition | Potency |
| --- | --- | --- |
| O=C(CSc1ncccn1)NCc1ccc(F)cc1 | inactive: 13.7% | – |
| CCNC(=O)N1c2ccc(OCC)cc2C(C)=CC1(C)C | – | inconclusive: 1 µM [activator, single point] |
| COc1ccc(-c2nc(N3CCCC3)[nH]c(=O)c2C#N)cc1 | – | inconclusive: 7.08 µM [inhibitor, partial curve] |
| COc1cc(/C=C/C(=O)c2c(O)cc(C)oc2=O)cc(OC)c1O | – | inconclusive: 10 µM [activator, partial curve] |
| COc1cccc(/C=C/C(=O)OCC(=O)NCCc2ccccc2)c1 | – | inconclusive: 2.24 µM [activator, full curve, poor fit] |
| CCn1cc(C2=NOC(C(=O)Nc3ccccc3C(=O)OC)C2)c(C)n1 (stereo not given) | inactive: -32.1% | – |
| Cc1[nH]c2ccccc2c1SCc1nnc(SCc2ccc(Cl)cc2)n1C | – | inconclusive: 3.16 µM [activator, single point] |
| O=C(O)CCn1cc(/C=C/C(=O)c2ccc(Cl)cc2)c(-c2ccc(Br)cc2)n1 | – | inconclusive: 11.2 µM [activator, partial curve, poor fit] |
| NS(=O)(=O)c1ccc(NC(=O)c2ccc(CNS(=O)(=O)c3cc(C(F)(F)F)ccc3Cl)cc2)cc1 | inactive: -17.4% [at 9.22 µM] | – |
| CCOc1cc(NC(=S)NCCCN2CCOCC2)c(OCC)cc1NC(=O)c1ccc(OC)cc1 | inactive: -7.32% [at 9.22 µM] | – |

Continuation.

| Structure (SMILES) | activity change, negative = inhibition | Potency |
| --- | --- | --- |
| CCOC(=O)c1ccc(NC(=O)NCc2c(C)nn(CC)c2C)cc1 | – | inconclusive: 5.62 µM [inhibitor, single point] |
| CC1=CC2(O)OCCN(CCO)C2=CC1=O (stereo not given) | inactive: -6.94% | – |
| CC1=CCC(C(=O)O)(C(=O)N/N=C/c2cccs2)C(c2ccc(F)cc2)C1 (stereo not given) | – | inconclusive: 0.562 µM [inhibitor, full curve, poor fit] |
| c1ccc(N2CCN(c3cnc4ccccc4n3)CC2)cc1 | – | inconclusive: 35.5 µM [inhibitor, single point] |
| CN(Cc1ccccc1)C(=O)c1nc2ccccn2c1CN1CCC(N2CCOCC2)CC1 | inactive: 5.76% [at 9.22 µM] | – |
| CC(c1ccccc1)N1C(=O)/C(=C/c2ccncc2)SC1=S (stereo not given) | inactive: -1.16% [at 9.22 µM] | – |
| COc1ccccc1N1CCN(C(=O)c2cc3c(-c4ccc(Cl)cc4)nn(C)c3s2)CC1 | – | inconclusive: 22.4 µM [inhibitor, single point] |
| CCCCn1c(CN2CCN(c3ccccc3)CC2)nc2c1c(=O)n(C)c(=O)n2C | – | inconclusive: 11.2 µM [inhibitor, partial curve] |
| O=C(NNc1nc(-c2ccccc2)cs1)c1ccc(F)cc1 | – | inconclusive: 7.94 µM [inhibitor, partial curve] |
| O=C(Nc1nc(-c2cc3ccccc3o2)cs1)c1ccc(S(=O)(=O)N2CCCC2)cc1 | – | inconclusive: 4.47 µM [inhibitor, full curve, poor fit] |
| COC(=O)C1=C(C)NC(C)=C(C(=O)OC)C1c1ccc(-c2cc(Cl)ccc2Cl)o1 | inactive: 14% | – |
| CC(Sc1nc2ccc(Br)cc2[nH]1)C(=O)O (stereo not given) | – | inconclusive: 0.708 µM [activator, full curve, poor fit] |
| CCc1nnc(NC(=O)CSc2nnc(Cc3cc(=O)[nH]c(=O)[nH]3)n2-c2ccc(OC)cc2)s1 | – | inconclusive: 3.98 µM [activator, single point] |
| COc1cccc(-n2c(N)c(C#N)c3ccc([N+](=O)[O-])cc3c2=O)c1 | – | inconclusive: 3.16 µM [inhibitor, single point] |
| C=CCSc1nc(-c2ccc(OC)cc2)c(C#N)c(=O)n1CC=C | – | inconclusive: 35.5 µM [inhibitor, single point] |
| COc1cc(/C=C(\C#N)C(=O)NCC2CCCO2)ccc1OCC(=O)O (stereo not given) | inactive: -0.399% | – |
| CCCCCC=CCC=CCCCCCCCC(=O)OCC | inactive: -6.23% | – |
| C#CCN1C(=O)C(O)(CC(=O)/C=C/C=C/c2ccccc2)c2ccccc21 (stereo not given) | inactive: -6.96% | – |
| COCCN(C(=O)C1CCCC1)c1c(N)n(Cc2ccccc2)c(=O)[nH]c1=O | inactive: -7.32% | – |
| O=C(C1=C(O)C(=O)N(CCCN2CCOCC2)C1c1ccccn1)c1cccs1 (stereo not given) | – | inconclusive: 35.5 µM [activator, single point] |
| O=C(Cc1cccs1)N/N=C\c1ccc([N+](=O)[O-])s1 | – | inconclusive: 31.6 µM [inhibitor, single point] |
| Cc1ccc(N(CC(=O)N2CCN(C3CCCCC3)CC2)S(=O)(=O)c2cccnc2)cc1 | – | inconclusive: 5.62 µM [activator, partial curve] |

Source: PubChem BioAssay AID1688 (National Center for Advancing Translational Sciences (NCATS), 2009)
